In paper doi:10.1101/2020.08.13.249276:
These are yes or no findings as the source states them, for the method shown. In cells and extracts the contact can be indirect. These calls come from enrichment with a bait or labelling near it, and not all partners need be listed.

Amino acid sequences for entries named in this document (tags omitted). A change or cut given only in a name is not applied to a line headed by its entry.
UniProt F4KIH8: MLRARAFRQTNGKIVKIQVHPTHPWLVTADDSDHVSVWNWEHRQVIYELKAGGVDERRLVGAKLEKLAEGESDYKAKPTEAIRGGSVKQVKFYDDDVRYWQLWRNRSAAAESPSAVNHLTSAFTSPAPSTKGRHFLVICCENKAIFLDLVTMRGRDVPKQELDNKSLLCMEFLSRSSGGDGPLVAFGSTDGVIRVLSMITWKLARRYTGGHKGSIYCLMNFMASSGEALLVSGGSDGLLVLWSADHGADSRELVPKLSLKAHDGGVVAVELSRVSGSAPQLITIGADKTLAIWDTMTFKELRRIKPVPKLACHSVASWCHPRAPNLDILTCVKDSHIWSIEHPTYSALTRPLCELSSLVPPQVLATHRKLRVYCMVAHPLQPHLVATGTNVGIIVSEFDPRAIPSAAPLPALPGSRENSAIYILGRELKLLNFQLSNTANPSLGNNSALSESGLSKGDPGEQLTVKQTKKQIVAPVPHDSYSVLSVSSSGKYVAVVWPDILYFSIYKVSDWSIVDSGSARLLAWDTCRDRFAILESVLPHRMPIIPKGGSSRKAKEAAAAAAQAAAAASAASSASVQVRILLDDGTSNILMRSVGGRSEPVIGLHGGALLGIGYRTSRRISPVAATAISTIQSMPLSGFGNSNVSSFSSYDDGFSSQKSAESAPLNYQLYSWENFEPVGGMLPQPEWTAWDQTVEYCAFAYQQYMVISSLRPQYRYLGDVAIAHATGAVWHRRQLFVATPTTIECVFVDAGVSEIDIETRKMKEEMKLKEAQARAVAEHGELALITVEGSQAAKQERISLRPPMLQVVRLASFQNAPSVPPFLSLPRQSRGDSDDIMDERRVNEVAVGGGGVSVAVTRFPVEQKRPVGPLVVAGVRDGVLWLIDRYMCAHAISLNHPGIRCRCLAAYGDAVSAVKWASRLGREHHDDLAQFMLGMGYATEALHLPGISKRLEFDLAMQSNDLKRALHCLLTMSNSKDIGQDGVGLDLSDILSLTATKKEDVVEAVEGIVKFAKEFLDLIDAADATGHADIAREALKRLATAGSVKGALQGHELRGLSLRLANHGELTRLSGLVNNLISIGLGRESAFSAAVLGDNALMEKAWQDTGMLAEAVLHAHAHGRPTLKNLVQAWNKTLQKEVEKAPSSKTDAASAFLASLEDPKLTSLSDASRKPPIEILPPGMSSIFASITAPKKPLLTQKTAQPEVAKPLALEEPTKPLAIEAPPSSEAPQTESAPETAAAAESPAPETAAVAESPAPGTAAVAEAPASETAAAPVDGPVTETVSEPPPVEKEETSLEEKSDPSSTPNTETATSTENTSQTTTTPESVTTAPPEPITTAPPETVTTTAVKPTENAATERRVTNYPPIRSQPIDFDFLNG
UniProt F4J8D3: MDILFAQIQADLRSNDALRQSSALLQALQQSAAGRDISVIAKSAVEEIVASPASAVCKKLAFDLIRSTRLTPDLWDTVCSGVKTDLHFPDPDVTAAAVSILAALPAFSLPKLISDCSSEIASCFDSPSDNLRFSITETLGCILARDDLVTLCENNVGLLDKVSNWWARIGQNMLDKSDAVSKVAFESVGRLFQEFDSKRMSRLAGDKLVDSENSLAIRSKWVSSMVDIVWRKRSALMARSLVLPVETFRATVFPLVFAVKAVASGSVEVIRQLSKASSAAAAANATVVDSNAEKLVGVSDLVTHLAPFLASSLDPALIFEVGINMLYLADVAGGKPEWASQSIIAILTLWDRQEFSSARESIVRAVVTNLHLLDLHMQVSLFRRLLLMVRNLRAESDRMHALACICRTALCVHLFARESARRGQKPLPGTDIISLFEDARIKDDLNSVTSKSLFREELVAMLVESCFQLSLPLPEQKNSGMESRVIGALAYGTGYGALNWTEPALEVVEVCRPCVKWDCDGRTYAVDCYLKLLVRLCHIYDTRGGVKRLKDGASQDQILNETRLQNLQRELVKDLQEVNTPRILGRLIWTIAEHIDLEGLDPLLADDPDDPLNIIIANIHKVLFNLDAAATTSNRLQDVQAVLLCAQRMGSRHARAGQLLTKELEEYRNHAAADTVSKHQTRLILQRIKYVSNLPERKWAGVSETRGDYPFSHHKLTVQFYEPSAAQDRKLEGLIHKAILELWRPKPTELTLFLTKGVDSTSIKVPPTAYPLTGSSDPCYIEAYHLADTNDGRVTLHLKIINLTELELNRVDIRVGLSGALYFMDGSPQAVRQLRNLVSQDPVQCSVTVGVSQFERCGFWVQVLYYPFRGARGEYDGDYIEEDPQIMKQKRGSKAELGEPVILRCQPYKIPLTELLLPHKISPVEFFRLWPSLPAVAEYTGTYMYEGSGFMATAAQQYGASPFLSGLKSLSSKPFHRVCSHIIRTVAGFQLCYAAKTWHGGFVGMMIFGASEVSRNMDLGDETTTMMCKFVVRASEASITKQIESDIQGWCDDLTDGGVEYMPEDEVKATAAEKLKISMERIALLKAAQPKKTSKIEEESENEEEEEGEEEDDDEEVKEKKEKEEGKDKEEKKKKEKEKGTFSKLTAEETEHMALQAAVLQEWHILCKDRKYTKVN

Columns and labels:
[1] = molecular target: AtEH1/Pan1-GS (Arabidopsis) (UniProt F4HUN9); assay: affinity purification with mass spectrometry
TML-GS (Arabidopsis) = TML-GS (Arabidopsis) (UniProt Q9FKM4); assay: affinity purification with mass spectrometry

Substance	binding [1]	binding (TML-GS (Arabidopsis))
LOLITA (from UniProt Q9XI32)	binds	binds
TWD40-2 (from UniProt F4KIH8)	binds	binds
AtEH1/Pan1 (from UniProt F4HUN9)		binds
TPLATE (from UniProt F4J8D3 1-1176)	binds	binds
